Tested on: PFV intasome/nucleosome complex
Test: AlphaLISA PFV intasome/nucleosome interaction assay
Format: binding, prototype foamy virus (PFV); human mononucleosome
Procedure: AlphaLISA is a technology particularly suitable for bimolecular inhibitor screening assays using protein-protein interactions with purified recombinant proteins. The AlphaLISA assay development was performed in 96-well 12 area Alphaplate (reference 6052340, PerkinElmer, Waltham, MA, USA) with a final reaction volume of 40 µL. Cross-titration experiments of biotinylated MN (0–50 nM) against DIG-intasome (0–100 nM) were carried out to establish optimal assay concentrations for the binding assay. Ten microliters of each protein were diluted in the binding buffer 50 mM BisTris-propane pH 7, 100 mM NaCl, 0.1% (v/v) Tween-20, 0.1% (w/v) BSA, and 1 mM dithiothreitol. The plate was incubated at RT for 2 h in rotation. Ten microliters of anti-DIG acceptor beads (PerkinElmer, reference AL113) were then added, and after 1 h of incubation at RT with rotation, 10 µL of streptavidin […] (Perkin Elmer, reference 6760002) was mixed to the wells. This established a final concentration of 20 µg/mL for each bead. The plate was then incubated for 1 h at RT in the dark before the AlphaLISA signal was detected using an EnSpire Multimode Plate Reader (PerkinElmer). Negative control with binding buffer or only with one of the complexes was used to control the assay quality. Data were analyzed with GraphPad Prism 5.01 software. To evaluate tolerance for DMSO, the assay was performed as described above with an addition of 0.15–20% (v/v) of DMSO during the binding step. For the competition experiment, increasing concentrations of untagged intasome were titrated out in the 1-nM DIG-intasome/biotinylated nucleosome interaction assay.
For the AlphaLISA screening assay with the NIH OncoSET library, the binding conditions were optimized for use in 384-well plate (Optiplate, reference 6007290, PerkinElmer) with the same concentrations for complexes and beads in a final reaction volume of 20.5 µL (2.5% DMSO final concentration). […] Any compound that causes decreased signal means that it interferes with AlphaLISA readout, and therefore, it is not relevant to this assay.

Q: CC/C(=C(\c1ccccc1)c1ccc(OCCN(C)C)cc1)c1ccccc1 [Tamoxifen, tamoxifen] was tested. Which “decrease in the AS signal” value (OncoSET screen, 25 µM drug, 1 nM of each partner) did it give?
A: Its value is “at least 50%”.

Q: And the IC50 (intasome/nucleosome AS assay, increasing drug concentrations, Fig. 3E)?
A: The IC50 was 37.1 ± 0.07 µM.

Q: And the “decrease in the AS signal” value (retest at 10 µM, MN)?
A: Its value is 50–60%.
